From paper PMC8713982, “Structure and RNA template requirements of Arabidopsis RNA-DEPENDENT RNA POLYMERASE 2”
No constants are given. Whether binding was seen depends on the method and setting.

Molecular target: RNA-… RNA POLYMERASE 2 (Arabidopsis) (UniProt O82504)
Assay: cryo-EM structure; single-particle cryo-EM of purified recombinant RDR2 alone (Titan Krios, 300 kV, K3 camera; no tilt and 30° tilt); both purified

- binding: no binding
B1: RNA-… RNA POLYMERASE 2 (enzyme, UniProt O82504 1-1133)
chain: MVSETTTNRSTVKISNVPQTIVADELLRFLELHLGEDTVFALEIPTTRDNWKPRDFARVQFTTLEVKSRAQLLSSQSKLLFKTHNLRLSEAYDDIIPRPVDPRKRLDDIVLTVGFPESDEKRFCALEKWDGVRCWILTEKRRVEFWVWESGDCYKIEVRFEDIIETLSCCVNGDASEIDAFLLKLKYGPKVFKRVTVHIATKFKSDRYRFCKEDFDFMWIRTTDFSGSKSIGTSTCFCLEVHNGSTMLDIFSGLPYYREDTLSLTYVDGKTFASAAQIVPLLNAAILGLEFPYEILFQLNALVHAQKISLFAASDMELIKILRGMSLETALVILKKLHQQSSICYDPVFFVKTQMQSVVKKMKHSPASAYKRLTEQNIMSCQRAYVTPSKIYLLGPELETANYVVKNFAEHVSDFMRVTFVEEDWSKLPANALSVNSKEGYFVKPSRTNIYNRVLSILGEGITVGPKRFEFLAFSASQLRGNSVWMFASNEKVKAEDIREWMGCFRKIRSISKCAARMGQLFSASRQTLIVRAQDVEQIPDIEVTTDGADYCFSDGIGKISLAFAKQVAQKCGLSHVPSAFQIRYGGYKGVIAVDRSSFRKLSLRDSMLKFDSNNRMLNVTRWTESMPCFLNREIICLLSTLGIEDAMFEAMQAVHLSMLGNMLEDRDAALNVLQKLSGENSKNLLVKMLLQGYAPSSEPYLSMMLRVHHESQLSELKSRCRILVPKGRILIGCMDEMGILEYGQVYVRVTLTKAELKSRDQSYFRKIDEETSVVIGKVVVTKNPCLHPGDIRVLDAIYEVHFEEKGYLDCIIFPQKGERPHPNECSGGDLDGDQFFVSWDEKIIPSEMDPPMDYAGSRPRLMDHDVTLEEIHKFFVDYMISDTLGVISTAHLVHADRDPEKARSQKCLELANLHSRAVDFAKTGAPAEMPYALKPREFPDFLERFEKPTYISESVFGKLYRAVKSSLAQRKPEAESEDTVAYDVTLEEAGFESFIETAKAHRDMYGEKLTSLMIYYGAANEEEILTGILKTKEMYLARDNRRYGDMKDRITLSVKDLHKEAMGWFEKSCEDEQQKKKLASAWYYVTYNPNHRDEKLTFLSFPWIVGDVLLDIKAENAQRQSVEEKTSGLVSI
